The list does not hold the whole screen: it gathers tests that were run many times, whatever their T/C, doses with no T/C, and many T/C values between a quarter and a half above the control. Other doses and runs of a compound stand elsewhere. T/C is the treated group as % of the vehicle group. Some entries give survivors of the animals treated and no T/C: the source holds a T/C of zero for them, seemingly a mark for toxic or unscored doses. Some survivor counts are full or nearly so, which does not show that the dose was tolerated: the source hardly ever lists a survival T/C far under the control, and the zero likely stands for such cases as well. Survivors were counted at the toxicity check, usually on the fifth day, unless a day is given; later deaths do not show. Schedule codes are those of the source, taken here to give the interval after Q, in days (D) or hours (H), and the number of doses after X. For survival time, this PubChem deposit counts one and a half times the control or more as active, and values a quarter to a half above the control carry no call in these data; other NCI protocols may use other cut-offs. Some entries hold several experiments; their values stand side by side, smallest first.
Tested on: CD2F1 mice, L1210 leukemia ip, survival T/C
Assay: NCI In Vivo Anticancer Drug Screen. Data for tumor model L1210 Leukemia (intraperitoneal) in CD2F1 (CDF1) mice
Details: higher T/C = longer survival
Experimental: The antitumor activity of compounds was measured in mice bearing transplantable tumors. Survival or tumor size were measured and the results are expressed as the measurement made in the treated group (T) divided by the measurement made in the vehicle treated control group (C). The tumor model used in this assay is L1210 Leukemia (intraperitoneal) in CD2F1 (CDF1) mice

[1] = T/C endpoint: mean survival time, dose: 400.0 mg/kg/injection, schedule: Q04DX003 (ip), vehicle: saline with Tween-80
[2] = T/C endpoint: mean survival time, dose: 200.0 mg/kg/injection, schedule: Q01DX009 (ip), vehicle: saline with Tween-80
[3] = T/C endpoint: mean survival time, dose: 400.0 mg/kg/injection, schedule: Q01DX009 (ip), vehicle: saline with Tween-80
[4] = T/C endpoint: mean survival time, dose: 400.0 mg/kg/injection, schedule: Q04DX002 (ip), vehicle: saline with Tween-80

Question: `COC(=O)c1cncn1C(C)c1cccc2ccccc12` (centres undefined) was tested. Which survivor count [1] did it give?
Answer: 4 of 6

Question: With `c1ccc([Te][Te]c2ccccc2)cc1` as the compound, how does the survivor count (T/C endpoint: median survival time, dose: 100.0 mg/kg/injection, schedule: Q01DX009 (ip), vehicle: saline with Tween-80) read?
Answer: 4 of 6

Question: And the survivor count (T/C endpoint: median survival time, dose: 200.0 mg/kg/injection, schedule: Q01DX009 (ip), vehicle: saline with Tween-80)?
Answer: 0 of 6

Question: For `CC(O)C(NC(=O)OC(C)(C)C)C(=O)ON1C(=O)CCC1=O` (centres undefined), which survivor count [2] is on record?
Answer: 2 of 6

Question: And the survivor count [3]?
Answer: 0 of 6

Question: With `Nc1ncc2c(n1)SCC2` as the compound, how does the survivor count (T/C endpoint: mean survival time, dose: 100.0 mg/kg/injection, schedule: Q01DX001 (ip), vehicle: saline) read?
Answer: 1 of 6

Question: What about the survivor count (T/C endpoint: mean survival time, dose: 400.0 mg/kg/injection, schedule: Q01DX001 (ip), vehicle: saline) of the same compound?
Answer: 1 of 6

Question: `CN1CCC(=C(C#N)c2ccccc2)CC1` was tested. Which survivor count (T/C endpoint: mean survival time, dose: 50.0 mg/kg/injection, schedule: Q01DX009 (ip), vehicle: saline) did it give?
Answer: 2 of 6

Question: For `CC1(C)C2CCC(CN=C(N)CSS(=O)(=O)O)C1C2` (centres undefined), which survivor count (T/C endpoint: mean survival time, dose: 100.0 mg/kg/injection, schedule: Q04DX002 (ip), vehicle: saline with Tween-80) is on record?
Answer: 0 of 3

Question: What about the survivor count (T/C endpoint: mean survival time, dose: 200.0 mg/kg/injection, schedule: Q04DX002 (ip), vehicle: saline with Tween-80) of the same compound?
Answer: 0 of 3

Question: And the survivor count [4]?
Answer: 0 of 3

Question: With `O=C(O)c1cccc2ccc(Br)cc12` as the compound, how does the survivor count (T/C endpoint: median survival time, dose: 400.0 mg/kg/injection, schedule: Q04DX002 (ip), vehicle: saline with Tween-80) read?
Answer: 2 of 3

Question: For `CCCCC(CCCC)CS(=O)[O-].[C-]#[O+].[C-]#[O+].[Fe+6].[c-]1[c-][c-][cH-][c-]1`, which survivor count (T/C endpoint: mean survival time, dose: 100.0 mg/kg/injection, schedule: Q04DX002 (ip), vehicle: saline) is on record?
Answer: 1 of 3

Question: And the survivor count (T/C endpoint: mean survival time, dose: 200.0 mg/kg/injection, schedule: Q04DX002 (ip), vehicle: saline)?
Answer: 0 of 3

Question: What about the survivor count (T/C endpoint: mean survival time, dose: 400.0 mg/kg/injection, schedule: Q04DX002 (ip), vehicle: saline) of the same compound?
Answer: 0 of 3

Question: What does the source list for `O=C(O)C(O)C(O)C(O)C(O)C(O)CO.[NH-]C1CCCCC1[NH-].[Pt+2]` (centres undefined)?
Answer: T/C (T/C endpoint: median survival time, dose: 6.25 mg/kg/injection, schedule: Q04DX003 (ip), vehicle: saline): 128 and 147 % of control; survivor count (T/C endpoint: median survival time, dose: 100.0 mg/kg/injection, schedule: Q04DX003 (ip), vehicle: saline): 4 of 6

Question: How did the survivor count (T/C endpoint: mean survival time, dose: 50.0 mg/kg/injection, schedule: Q01DX009 (ip), vehicle: other) turn out when `CC(=O)N(/C=C\C=C\c1sc2ccccc2[n+]1C)c1ccccc1` was run?
Answer: 2 of 6

Question: And the survivor count (T/C endpoint: mean survival time, dose: 100.0 mg/kg/injection, schedule: Q01DX009 (ip), vehicle: other)?
Answer: 1 of 6

Question: What about the survivor count (T/C endpoint: mean survival time, dose: 200.0 mg/kg/injection, schedule: Q01DX009 (ip), vehicle: other) of the same compound?
Answer: 0 of 6

Question: For `CC1(C)N=C(N)N=C(N)N1c1cccc(CCCc2ccccc2)c1`, which survivor count (T/C endpoint: mean survival time, dose: 12.5 mg/kg/injection, schedule: Q01DX001 (ip), vehicle: saline) is on record?
Answer: 3 of 3

Question: What about the survivor count (T/C endpoint: mean survival time, dose: 25.0 mg/kg/injection, schedule: Q01DX001 (ip), vehicle: saline) of the same compound?
Answer: 1 of 3

Question: What does the source list for `C=C(C)C1(Cc2ccccc2)C(=O)NC(=S)NC1=O`?
Answer: survivor count (T/C endpoint: mean survival time, dose: 40.0 mg/kg/injection, schedule: Q01DX001 (ip), vehicle: saline): 0 of 6; survivor count (T/C endpoint: mean survival time, dose: 80.0 mg/kg/injection, schedule: Q01DX001 (ip), vehicle: saline): 0 of 6

Question: Which results are given for `CC(=O)Nc1ccc2c(c1)C(P(=O)(OC(C)C)OC(C)C)c1ccccc1-2` (centres undefined)?
Answer: survivor count (T/C endpoint: mean survival time, dose: 100.0 mg/kg/injection, schedule: Q01DX009 (ip), vehicle: saline with Tween-80): 6 of 6; survivor count [2]: 6 of 6; survivor count [3]: 6 of 6

Question: For `CCC/C=C/C=C/C(=O)OC1/C(=C/C(=O)OC)CC2CC(C(C)O)OC(=O)CC(O)CC3CC(OC(C)=O)C(C)(C)C(O)(CC4C/C(=C/C(=O)OC)CC(/C=C/C(C)(C)C1(O)O2)O4)O3` (centres undefined), which T/C (T/C endpoint: median survival time, dose: 37.5 micrograms/kg/injection, schedule: Q01DX009 (ip), vehicle: saline + alcohol) is on record?
Answer: 134 % of control

Question: And the T/C (T/C endpoint: median survival time, dose: 75.0 micrograms/kg/injection, schedule: Q01DX009 (ip), vehicle: saline + alcohol)?
Answer: 140 and 142 % of control

Question: And the survivor count (T/C endpoint: median survival time, dose: 150.0 micrograms/kg/injection, schedule: Q01DX009 (ip), vehicle: saline + alcohol)?
Answer: 2 of 5

Question: What about the survivor count (T/C endpoint: median survival time, dose: 300.0 micrograms/kg/injection, schedule: Q01DX009 (ip), vehicle: saline + alcohol) of the same compound?
Answer: 0 of 6

Question: How did the survivor count [4] turn out when `O=C(O)COc1cc(Cl)c(Cl)cc1Cl` (tested in a mixture with another compound) was run?
Answer: 0 of 3

Question: Which survivor count [1] does the source give for `O=C(O)CC1(CC(=O)O)CCCCC1` here?
Answer: 6 of 6

Question: For `Cc1ccc(C2=CSc3ccccc3N2)cc1`, which survivor count (T/C endpoint: mean survival time, dose: 400.0 mg/kg/injection, schedule: Q04DX002 (ip), vehicle: other) is on record?
Answer: 1 of 3

From PubChem BioAssay AID256 (DTP/NCI, 2004)
